Results from PubChem BioAssay AID2685 (National Center for Advancing Translational Sciences (NCATS), 2010).
The other results are listed elsewhere or left out. Shown are side measurements of this screen, not its main read-out; they come without a call. Compounds called inactive in the main read-out are mostly missing here. Potencies come from curve fits of mixed quality, noted in brackets.

Test: qHTS Assay for Lipid Storage Modulators in Drosophila S3 Cells;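 for cell number change: cells counted by Cell Tracker Red CMTPX staining in the red channel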
Conditions: BODIPY lipid droplet fluorescence, 18-24 h; for cell number change: measured here: cell count max response, cells fed with added oleic acid
Procedure, shortened: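 Drosophila S3 cells got compounds at several concentrations plus oleic acid (400 uM solution). Laser-scanning cytometry with 488 nm excitation read lipid droplets at 500-530 nm and cells at 575-640 nm. Percent activity was relative to 20 uM Triacsin C.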

[1] = measured here: lipid fluorescence (Fed channel) AC50, cells fed with added oleic acid
[2] = measured here: cell number channel AC50, cells fed with added oleic acid

SMILES	cell number change [%]	AC50 [1]	AC50 [2]
Cc1ccnc(NC(=O)c2cccc(OC(F)F)c2)n1	-14.3	–	–
CCn1c(/C=C/c2ccccc2F)nc2ccccc2c1=O	-9.89	29.1 µM [falling, single point]	–
Cc1ccc(C(C)C)c(OCC(=O)NNC(=O)Cn2[nH]c(=O)c3ccccc3c2=O)c1	16.9	0.326 µM [falling, single point]	–
Cc1cccc(OCC(=O)N(Cc2nnc(-c3ccccc3Cl)o2)C2CC2)c1	22.2	0.103 µM [rising, full curve, poor fit]	–
Cc1ccc(NS(=O)(=O)c2cccc(C(=O)NCC(c3ccc(F)cc3)N3CCOCC3)c2)cc1 (stereo unspecified)	4.41	0.206 µM [falling, full curve, poor fit]	–
CSc1ccc(/C=C/C(=O)c2ccc(NC(=O)C(C)C)cc2)cc1	-11.5	4.11 µM [falling, full curve, poor fit]	–
O=C(NC1CCCC1)C(c1ccncc1)N(C(=O)Cc1cccs1)c1cccc(F)c1 (stereo unspecified)	-5.13	–	0.731 µM [rising, single point]
Cc1ccc(N/C(CSC(N)=O)=N/S(=O)(=O)c2ccccc2)cc1	–	20.6 µM [falling, partial curve]	–
N#Cc1nc(-c2ccccc2F)oc1NCc1ccccc1	-14.4	–	–
O=C(COC(=O)c1cc2c(s1)CCCCC2)NC1CCS(=O)(=O)C1 (stereo unspecified)	-44.4	–	–
CC1=CC(C)(C)N2C(=O)C3(C(C#N)=C(N)OC4=C3C(=O)CC(C)(C)C4)c3c(C)c(C)cc1c32 (stereo unspecified)	-6.76	–	1.64 µM [rising, partial curve]
COc1ccccc1C(=O)COC(=O)CNS(=O)(=O)c1ccc(C)c(C)c1	-24	16.4 µM [falling, partial curve]	–
CCOc1ccc(/C=N/N(C)c2ccccc2)cc1OC	4.88	0.58 µM [rising, single point]	–
O=C(CNC(=O)c1ccccc1)N/N=C/c1ccccc1Cl	-6.37	–	–
COc1ccc(N2C(=O)c3cc4ccccc4cc3C2=O)cc1	34.4	16.4 µM [rising, partial curve, poor fit]	29.1 µM [rising, partial curve, poor fit]
Cc1ccn2c(=O)c(NC(=O)COc3ccccc3)c(C)nc2c1	8.62	–	–
Cc1cccc(COc2ccccc2C(=O)N(C)CC(=O)Nc2cccc(F)c2)c1	-11.7	13 µM [rising, partial curve, poor fit]	–
CCCCCCCC(=O)Oc1ccc(C(=O)Nc2cc(C)on2)cc1	1.39	29.1 µM [falling, single point]	–
COc1ccc(NC(=S)NNC(=O)c2nnn(-c3ccccc3)c2C)cc1	-1	7.31 µM [rising, partial curve]	–
COc1cc(C(=O)N/N=C/c2ccc(OC(=O)c3ccccc3Cl)cc2)ccc1O	-30.2	–	1.16 µM [falling, partial curve]
Cc1ccc(SCc2[nH]nc3c2C2(C(=O)Nc4ccc(F)cc42)C(C#N)=C(N)O3)cc1 (stereo unspecified)	18.5	0.461 µM [rising, full curve, poor fit]	–

SMILES	cell number change [%]	AC50 [1]	AC50 [2]
Cc1cc(C)cc(OCC(=O)Nc2cccc(-c3nnc(-c4ccco4)o3)c2)c1	–	0.651 µM [falling, single point]	–
COc1ccc(-n2c(SCC(=O)N3CCC(C(=O)O)CC3)nc3ccccc3c2=O)cc1OC	-14.3	14.6 µM [falling, partial curve]	–
Cc1ccc(N(C(=O)C(F)(F)F)C(C(=O)NC2CCCCC2)c2ccncc2)cc1C (stereo unspecified)	21.6	0.291 µM [rising, single point]	–
O=C(Cn1c(O)c(/C=C2\C=Nc3ccc(Br)cc32)sc1=O)N1CCCC1	–	–	7.31 µM [rising, single point]
CCc1ccc2[nH]c(C(=O)N(C)c3ccc(F)cc3F)cc2c1	20.8	0.58 µM [rising, single point]	–
O=C(O)c1cccc(N/N=C/c2cccc3ccccc23)c1	24.8	29.1 µM [rising, single point]	–
CC1=C(C)CC2(SC1)C(=O)N(c1ccccc1)N=C2N (stereo unspecified)	54.9	–	1.84 µM [rising, full curve]
CCCNS(=O)(=O)c1cccc(C(=O)NC2CCCc3ccccc32)c1 (stereo unspecified)	–	20.6 µM [falling, single point]	–
Cn1cnnc1SCC(=O)N1N=C(c2ccc(Cl)cc2)CC1c1ccco1 (stereo unspecified)	127	–	–
Cc1ccc(NC(=O)CN(C)C(=O)c2ccc(C(F)(F)F)cc2)cc1	-20.5	0.116 µM [falling, full curve, poor fit]	0.092 µM [falling, full curve, poor fit]
O=C(COC(=O)c1cccs1)Nc1ccccc1[N+](=O)[O-]	-104	–	18.4 µM [falling, partial curve, poor fit]
CC(Oc1ccc(F)cc1)C(=O)Nc1ccccc1N1CCCCC1 (stereo unspecified)	64.5	20.6 µM [rising, partial curve]	18.4 µM [rising, partial curve]
O=C(NNc1c2ccccc2nc2ccccc12)c1cccc(O)c1	-20	18.4 µM [falling, single point]	–
O=C(O)c1ccc(OCc2cn3ccccc3n2)cc1	15.4	–	–
Cc1c(C)n(C)c2ccc(C(=O)NCCc3ccco3)cc12	–	2.59 µM [rising, single point]	–
CC(=O)c1sc(NC(=O)C2CC(=O)N(Cc3ccccc3)C2)nc1-c1ccccc1 (stereo unspecified)	-24.3	8.2 µM [falling, partial curve]	–
COc1ccc(COC(=O)N/N=C(\C)CC(=O)Nc2ccc(Cl)cc2)cc1	58.1	–	4.11 µM [rising, partial curve]
COc1cc(/C=C/C(=O)OCC(=O)Nc2oc(C)c3c(C)n[nH]c(=O)c23)ccc1OC(F)F	–	0.517 µM [rising, partial curve, poor fit]	0.013 µM [rising, full curve, poor fit]
CC(=O)Oc1ccccc1-n1c(C)nc(=O)c(-c2ccccc2)c1C	-11	–	–
CCNC(=O)CC1SC(=Nc2ccc(C)cc2)NC1=O (stereo unspecified)	-7.94	–	6.51 µM [falling, partial curve, poor fit]
CC12CCC(=O)N1c1ccccc1C(=O)N2c1ccccc1 (stereo unspecified)	-92.7	18.4 µM [falling, partial curve]	14.6 µM [falling, partial curve, poor fit]

SMILES	cell number change [%]	AC50 [1]	AC50 [2]
O=C(COC(=O)c1c(F)cccc1Cl)NC1CCCCC1	–	–	5.8 µM [rising, single point]
COc1cccc(NC(=O)CN(C)C(=O)c2cc3ccccc3cc2OC)c1	20.9	7.31 µM [falling, partial curve]	–
Cc1cccc(CN2CCN(C(c3ccccc3)c3ccc(Cl)cc3)CC2)c1 (stereo unspecified)	-68.6	16.4 µM [falling, single point]	18.4 µM [falling, single point]
CN(Cc1ccccc1)C(=O)Cc1ccccc1	-1.61	0.326 µM [rising, partial curve, poor fit]	–
CN(Cc1ccccc1)C(=O)CCC1CCN(S(=O)(=O)N(C)C)CC1	16.8	–	–
O=C(CCCN1C(=O)C2CC=CCC2C1=O)Nc1cccc(F)c1 (stereo unspecified)	33.1	–	32.6 µM [rising, single point]
CC1CCN(c2nc3c(N)ncnc3n2[C@@H]2O[C@H](CO)[C@@H](O)[C@H]2O)CC1	-13.4	3.66 µM [falling, full curve, poor fit]	–
Cn1nc(C(=O)NCc2ccccc2)c2c1-c1ccccc1S(=O)(=O)C2	3.58	0.731 µM [rising, single point]	–
Nc1ccc(C(=O)N/N=C\C=C\c2cccc([N+](=O)[O-])c2)cc1	12	0.651 µM [rising, partial curve, poor fit]	0.731 µM [rising, partial curve, poor fit]
COCCN(CCOC)S(=O)(=O)c1ccc(C(=O)Nc2c(C)n(C)n(-c3ccccc3)c2=O)cc1	-39	–	32.6 µM [falling, single point]
CC1=NC(C#N)=C(C#N)NC(C)(C)C1	25	9.2 µM [rising, partial curve, poor fit]	–
COc1cccc(CN(C)C(=O)C(Cc2ccccc2)NC(=O)c2ccccc2)c1OC (stereo unspecified)	13.1	29.1 µM [rising, single point]	–
CCOc1ccccc1NC(=S)NCC1CCCO1 (stereo unspecified)	–	0.461 µM [falling, full curve, poor fit]	–
Cc1cc(C(=O)COC(=O)/C=C/c2ccc(F)cc2)c(C)n1C	-0.389	0.326 µM [rising, full curve]	–
CCC(=O)c1ccc(OCC(O)Cn2nc(C)c(Br)c2C)cc1 (stereo unspecified)	-6.16	–	–
CC(=O)Nc1ccc(C23CC4CC(CC(C4)C2)C3)cc1	-59.6	–	–
COc1ccccc1N1CCN(c2nnc(-c3ccc(F)cc3)c3ccccc23)CC1	-14.8	–	–
O=C(NC1CCCCC1)C(c1ccc(F)cc1)N(Cc1ccco1)C(=O)Cn1nnc2ccccc21 (stereo unspecified)	–	7.31 µM [falling, partial curve, poor fit]	–
O=C(CN1C(=O)C2C3C=CC(C3)C2C1=O)NC1CCCc2ccccc21 (stereo unspecified)	-4.52	6.51 µM [falling, single point]	–
C=CCOc1ccc(C2NC(=S)NC3=C2CCc2ccccc23)cc1 (stereo unspecified)	38.9	5.8 µM [rising, full curve]	4.61 µM [rising, full curve, poor fit]

Taken from the listing (3 entries):
SMILES	cell number change [%]	AC50 [1]	AC50 [2]
COc1ccc(NC(=S)NNC(=O)c2nnn(-c3ccccc3)c2C)cc1	-1	7.31 µM [rising, partial curve]	–
COc1cc(C(=O)N/N=C/c2ccc(OC(=O)c3ccccc3Cl)cc2)ccc1O	-30.2	–	1.16 µM [falling, partial curve]
Cc1ccc(SCc2[nH]nc3c2C2(C(=O)Nc4ccc(F)cc42)C(C#N)=C(N)O3)cc1 (stereo unspecified)	18.5	0.461 µM [rising, full curve, poor fit]	–
